This passage reports binding results from publication PMC11765155.

For assay [1], the target named is T1, C-terminal 3xmyc-tagged Hrr25 (Hrr25-myc) (S. cerevisiae) (UniProt P29295).
T1 sequence: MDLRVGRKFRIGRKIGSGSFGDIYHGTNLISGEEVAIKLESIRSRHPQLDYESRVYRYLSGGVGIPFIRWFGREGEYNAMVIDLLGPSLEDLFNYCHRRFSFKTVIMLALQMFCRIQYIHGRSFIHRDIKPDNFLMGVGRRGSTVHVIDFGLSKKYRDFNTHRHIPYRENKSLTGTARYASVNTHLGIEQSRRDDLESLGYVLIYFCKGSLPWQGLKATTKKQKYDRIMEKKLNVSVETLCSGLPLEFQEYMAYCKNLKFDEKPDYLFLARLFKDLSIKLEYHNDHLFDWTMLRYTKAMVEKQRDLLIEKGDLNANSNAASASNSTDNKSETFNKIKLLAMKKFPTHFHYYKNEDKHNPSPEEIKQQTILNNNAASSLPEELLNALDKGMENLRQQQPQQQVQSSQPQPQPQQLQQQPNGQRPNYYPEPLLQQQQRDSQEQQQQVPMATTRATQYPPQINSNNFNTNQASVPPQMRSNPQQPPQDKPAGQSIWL
As to the kind of experiment: co-IP; yeast lysates in IP buffer (50 mM Tris-HCl pH 7.6, 100 mM NaCl, 0.1% Triton X-100); myc-tagged Hrr25 precipitated with anti-c-myc 9E10 and protein G-Sepharose at 4 °C; Pin4-HA detected by anti-HA immunoblot.

Assay [2] deals with T2, GBD-Hrr25(N) (Gal4 DNA-binding domain fused to the N-terminal kinase domain of Hrr25) (S. cerevisiae) (UniProt P29295).
T2 sequence: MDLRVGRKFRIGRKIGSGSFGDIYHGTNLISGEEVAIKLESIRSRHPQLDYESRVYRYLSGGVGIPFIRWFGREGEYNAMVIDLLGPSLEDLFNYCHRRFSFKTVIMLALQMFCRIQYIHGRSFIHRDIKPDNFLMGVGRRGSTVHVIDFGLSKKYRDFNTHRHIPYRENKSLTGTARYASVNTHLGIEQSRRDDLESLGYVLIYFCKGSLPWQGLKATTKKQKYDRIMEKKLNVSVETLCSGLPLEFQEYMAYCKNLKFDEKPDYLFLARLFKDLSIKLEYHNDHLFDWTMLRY
The assay can be described thus: two-hybrid; GBD fusions in AH109 mated with GAD fusions in Y187; diploids on CSM with histidine (ADE2, colour), without histidine, or without histidine plus 1 mM 3-AT (HIS3).

Assay [3] addresses T3, GBD-Hrr25(K38A) (Gal4 DNA-binding domain fused to a kinase-dead mutant of Hrr25) (S. cerevisiae) (UniProt P29295).
T3 sequence: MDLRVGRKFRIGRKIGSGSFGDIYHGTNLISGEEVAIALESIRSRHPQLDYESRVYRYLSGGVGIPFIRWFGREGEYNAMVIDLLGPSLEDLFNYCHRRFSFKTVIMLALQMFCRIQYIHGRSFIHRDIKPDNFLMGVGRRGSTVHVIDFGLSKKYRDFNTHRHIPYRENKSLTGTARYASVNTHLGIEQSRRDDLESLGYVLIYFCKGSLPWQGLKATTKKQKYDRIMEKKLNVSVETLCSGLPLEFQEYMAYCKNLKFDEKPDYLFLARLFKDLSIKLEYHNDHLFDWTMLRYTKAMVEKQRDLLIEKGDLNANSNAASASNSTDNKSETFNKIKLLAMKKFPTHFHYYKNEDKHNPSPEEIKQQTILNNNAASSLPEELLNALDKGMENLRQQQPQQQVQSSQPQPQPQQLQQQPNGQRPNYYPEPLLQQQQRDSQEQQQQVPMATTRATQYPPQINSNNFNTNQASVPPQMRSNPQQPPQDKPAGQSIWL
Described as above.

The target in assay [4] is T4, GBD-Hrr25 (Gal4 DNA-binding domain fused to Hrr25) (S. cerevisiae) (UniProt P29295).
T4 sequence: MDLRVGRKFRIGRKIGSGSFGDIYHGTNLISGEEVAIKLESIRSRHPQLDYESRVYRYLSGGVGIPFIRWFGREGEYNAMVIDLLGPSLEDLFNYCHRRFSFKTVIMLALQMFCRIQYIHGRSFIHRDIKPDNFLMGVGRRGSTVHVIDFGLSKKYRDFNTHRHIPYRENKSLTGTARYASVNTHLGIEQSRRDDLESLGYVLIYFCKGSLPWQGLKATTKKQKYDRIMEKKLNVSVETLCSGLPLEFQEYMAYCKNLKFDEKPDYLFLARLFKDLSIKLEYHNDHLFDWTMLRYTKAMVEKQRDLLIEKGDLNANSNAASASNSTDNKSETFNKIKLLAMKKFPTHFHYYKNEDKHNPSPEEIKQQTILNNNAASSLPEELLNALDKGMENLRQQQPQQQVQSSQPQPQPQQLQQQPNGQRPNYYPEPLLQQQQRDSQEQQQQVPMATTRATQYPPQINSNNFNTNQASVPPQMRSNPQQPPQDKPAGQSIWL
The assay is described as above.

Results are given in words; binding and its absence hold for the method and conditions named. For some of these results: Binding seen in cells or lysates may run through a third protein. Some binding calls cover weakened binding; strength is not graded here. Tags and fused reporters may be left off the sequences shown.

B1: 3xHA-tagged Pin4 (Pin4-HA) (protein, UniProt P34217 1-668)
chain: METSSFENAPPAAINDAQDNNINTETNDQETNQQSIETRDAIDKENGVQTETGENSAKNAEQNVSSTNLNNAPTNGALDDDVIPNAIVIKNIPFAIKKEQLLDIIEEMDLPLPYAFNYHFDNGIFRGLAFANFTTPEETTQVITSLNGKEISGRKLKVEYKKMLPQAERERIEREKREKRGQLEEQHRSSSNLSLDSLSKMSGSGNNNTSNNQLFSTLMNGINANSMMNSPMNNTINNNSSNNNNSGNIILNQPSLSAQHTSSSLYQTNVNNQAQMSTERFYAPLPSTSTLPLPPQQLDFNDPDTLEIYSQLLLFKDREKYYYELAYPMGISASHKRIINVLCSYLGLVEVYDPRFIIIRRKILDHANLQSHLQQQGQMTSAHPLQPNSTGGSMNRSQSYTSLLQAHAAAAANSISNQAVNNSSNSNTINSNNGNGNNVIINNNSASSTPKISSQGQFSMQPTLTSPKMNIHHSSQYNSADQPQQPQPQTQQNVQSAAQQQQSFLRQQATLTPSSRIPSGYSANHYQINSVNPLLRNSQISPPNSQIPINSQTLSQAQPPAQSQTQQRVPVAYQNASLSSQQLYNLNGPSSANSQSQLLPQHTNGSVHSNFSYQSYHDESMLSAHNLNSADLIYKSLSHSGLDDGLEQGLNRSLSGLDLQNQNKKNLW
modifications: multi-phosphorylated in cells (sites not given)
With B1, in assay [1], the binding entry is on record as “binds”.

B2: GAD-Pin4 (Gal4 activation domain fused to Pin4) (protein, UniProt P34217 1-668)
chain: METSSFENAPPAAINDAQDNNINTETNDQETNQQSIETRDAIDKENGVQTETGENSAKNAEQNVSSTNLNNAPTNGALDDDVIPNAIVIKNIPFAIKKEQLLDIIEEMDLPLPYAFNYHFDNGIFRGLAFANFTTPEETTQVITSLNGKEISGRKLKVEYKKMLPQAERERIEREKREKRGQLEEQHRSSSNLSLDSLSKMSGSGNNNTSNNQLFSTLMNGINANSMMNSPMNNTINNNSSNNNNSGNIILNQPSLSAQHTSSSLYQTNVNNQAQMSTERFYAPLPSTSTLPLPPQQLDFNDPDTLEIYSQLLLFKDREKYYYELAYPMGISASHKRIINVLCSYLGLVEVYDPRFIIIRRKILDHANLQSHLQQQGQMTSAHPLQPNSTGGSMNRSQSYTSLLQAHAAAAANSISNQAVNNSSNSNTINSNNGNGNNVIINNNSASSTPKISSQGQFSMQPTLTSPKMNIHHSSQYNSADQPQQPQPQTQQNVQSAAQQQQSFLRQQATLTPSSRIPSGYSANHYQINSVNPLLRNSQISPPNSQIPINSQTLSQAQPPAQSQTQQRVPVAYQNASLSSQQLYNLNGPSSANSQSQLLPQHTNGSVHSNFSYQSYHDESMLSAHNLNSADLIYKSLSHSGLDDGLEQGLNRSLSGLDLQNQNKKNLW
With B2, the binding result is “no binding” in assay [2], “binds” in assay [3] and “binds” in assay [4].
